Among the data in US20210137890A1, “DEUTERATED IMIDAZOLIDINEDIONE COMPOUNDS AND THEIR USES” (priority 2018, published 2021) are IC50 values, retold here.

The test system of the test is LNCaP. As to the kind of experiment: LNCaP growth inhibition. The format is cell-based. The note with it: Homo sapiens.

`CNC(=O)c1ccc(N2C(=S)N(c3ccc(C#N)c(C(F)(F)F)c3)C(=O)C2(C)C)cc1F` [enzalutamide] yielded an IC50 of 120 pM.
